In all, about 360,000 compounds went through this assay and about 10,000 (2.8%) were called active. The shares of active, inactive and inconclusive entries below differ from those in the screen. Calls come from the whole dose curve; as a rule, active = well fitted inhibition curve with a large enough effect; inconclusive = small, poorly fitted or top-dose-only effect; inactive = flat fitted curve, though single readings scatter. A potency beside an inconclusive call is a rough fit, not a confirmed value.
target: Serine/threonine-protein kinase PLK1 (Homo sapiens) (UniProt P53350); assay: qHTS for Inhibitors of PLK1-PDB (polo-like kinase 1 - polo-box domain): Primary Screen; details: Plk1 PBD binding of FITC phosphopeptide, fluorescence polarization; note: nearly all actives have a fitted effect of over 65% in size; for max response, negative = inhibition: series mostly up to about 57 µM
% is set by controls: 0 for no effect and ±100 for the full control effect; potency is the fitted concentration of half-maximal effect.

Amino acid sequences for entries named in this document (tags omitted).
UniProt P53350, whole entry, looked up: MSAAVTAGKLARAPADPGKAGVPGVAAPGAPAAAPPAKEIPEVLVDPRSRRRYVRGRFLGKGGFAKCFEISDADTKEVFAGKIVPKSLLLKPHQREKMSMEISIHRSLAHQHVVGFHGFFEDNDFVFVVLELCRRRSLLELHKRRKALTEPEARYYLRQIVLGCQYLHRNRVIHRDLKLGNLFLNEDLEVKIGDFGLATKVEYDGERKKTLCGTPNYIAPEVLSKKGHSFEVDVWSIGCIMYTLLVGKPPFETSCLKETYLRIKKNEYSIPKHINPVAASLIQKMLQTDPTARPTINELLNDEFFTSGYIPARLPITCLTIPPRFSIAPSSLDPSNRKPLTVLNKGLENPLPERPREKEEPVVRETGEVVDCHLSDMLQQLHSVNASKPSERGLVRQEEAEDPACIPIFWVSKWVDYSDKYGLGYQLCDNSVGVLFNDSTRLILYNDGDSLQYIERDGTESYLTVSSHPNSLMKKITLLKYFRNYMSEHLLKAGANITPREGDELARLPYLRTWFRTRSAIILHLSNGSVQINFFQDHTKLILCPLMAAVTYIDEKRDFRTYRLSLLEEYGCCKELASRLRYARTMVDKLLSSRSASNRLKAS

| Structure (SMILES) | Potency | max response, negative = inhibition |
| --- | --- | --- |
| Cc1ccccc1/C=N/n1c(COc2ccccc2)n[nH]c1=S | inconclusive: 23.8 µM [inhibitor, partial curve] |  |
| COc1ccc(N2CC(C(=O)Nc3nnc(SCC(=O)NC4CCCC4)s3)CC2=O)cc1 (stereo not drawn) | inconclusive: 23.8 µM [inhibitor, partial curve] |  |
| COc1ccc(Br)cc1CNc1ccc2[nH]c(=O)[nH]c2c1 |  | inactive: -5.18% |
| O=C(OCCN1CCOCC1)C(c1ccccc1)c1ccccc1 |  | inactive: -7.45% |
| Cc1cc(Br)cn2c(Cc3ccsc3)c(C(C)(C)C)nc12 | inconclusive: 26.7 µM [inhibitor, partial curve] |  |
| C/C(=N/NC(=O)c1cccs1)c1c(C)[nH]n(-c2nc3ccccc3s2)c1=O | inconclusive: 33.6 µM [inhibitor, partial curve] |  |
| COC(=O)c1cccc(C23CC4(C2)[C@H](CN(Cc2ccc(-c5ccccc5)cc2)[C@@H]4c2ccccc2)C3c2ccc(Cl)nc2)c1 (stereo partly drawn) | inconclusive: 67 µM [inhibitor, partial curve] |  |
| COC(=O)c1ccccc1NS(=O)(=O)c1ccc(NC(C)=O)cc1 | inconclusive: 33.6 µM [inhibitor, single point] |  |
| Cc1cccc2nc(CSc3ccccc3N)cn12 | inconclusive: 26.7 µM [inhibitor, partial curve] |  |
| CC(=O)c1c(C(C)=O)c(C)n(-c2ccc(O)cc2)c1C |  | inactive: -13.4% |
| COc1cccc(C2Nc3cc(Cl)c(S(N)(=O)=O)cc3S(=O)(=O)N2)c1 (stereo not drawn) | inconclusive: 37.7 µM [inhibitor, single point] |  |
| COc1ccc(C(=O)NCCS(=O)(=O)NC(C)c2ccccc2)cc1 (stereo not drawn) |  | inactive: 7.89% |
| CC(=O)c1cc(-c2ccccc2)n(CC(=O)N2CCC(N3CCCCC3)CC2)c1C |  | inactive: -0.848% |
| CCOC1=C/C(=C/c2c(N)n3nc(CC(=O)N4CCCCC4)sc3nc2=O)C=CC1=O |  | inconclusive: -31.9% [inhibitor] |
| CC(=O)N1CCOc2ccc(S(=O)(=O)N3CC(C)CC(C)C3)cc21 (stereo not drawn) |  | inconclusive: -36.8% [inhibitor] |
| Cc1ccc(S(=O)(=O)Nc2csc(C)c2C(=O)O)cc1 | inconclusive: 23.8 µM [inhibitor, partial curve] |  |
| CC(C)(C)OC(=O)NCC(=O)Oc1cc2oc(=O)cc(-c3ccccc3)c2cc1Cl | inconclusive: 23.8 µM [inhibitor, partial curve] |  |
| CCC1CCCCN1C(=O)CSc1nnc2nc(C)cc(C)n12 (stereo not drawn) |  | inactive: -5.86% |
| COc1ccccc1NC(=O)Oc1ccc(NC(=O)c2ccco2)cc1 | inconclusive: 21.2 µM [inhibitor, single point] |  |
| CC12CCC(C(=O)NCc3ccc4c(c3)OCO4)(CC1=O)C2(C)C (stereo not drawn) | inconclusive: 33.6 µM [inhibitor, partial curve] |  |
| COc1ccc(NC(=O)Cc2nnc(SCC(=O)NC3CCCCC3)n2C)cc1 | inconclusive: 37.7 µM [inhibitor, single point] |  |
| CCn1c(SCC(=O)c2cccs2)nnc1-c1cccs1 | inconclusive: 29.9 µM [inhibitor, single point] |  |
| O=S(=O)(c1ccc(F)c(Cl)c1)N1CCN(C/C=C/c2ccccc2)CC1 | inconclusive: 26.7 µM [inhibitor, partial curve] |  |

| Structure (SMILES) | Potency | max response, negative = inhibition |
| --- | --- | --- |
| CCOC(=O)c1ccc(N=C2C(=S)N(c3ccc(C(=O)OCC)cc3)C(=N)N2/N=C/c2ccccc2)cc1 | inconclusive: 26.7 µM [inhibitor, single point] |  |
| CC1(c2nnnn2Cc2ccccc2)CCC(=O)N1CCc1ccccc1F (stereo not drawn) |  | inactive: -18.9% |
| S=c1[nH]nc(-c2ccccc2Cl)n1/N=C/C=C/c1ccco1 | inconclusive: 18.9 µM [inhibitor, partial curve] |  |
| CC(C)C[C@@H](CN)NC(=O)c1nc[nH]c1C(=O)N[C@@H](C)C(=O)CNC[C@H](C)NC(=O)c1nc[nH]c1C(=O)N[C@@H](CC(C)C)C(=O)O | inconclusive: 23.8 µM [inhibitor, single point] |  |
| Cc1ccc(C)c(S(=O)(=O)N2CCN(CC(=O)NC(=O)NCc3ccco3)CC2)c1 | inconclusive: 29.9 µM [inhibitor, partial curve] |  |
| Cc1ccccc1C(=O)NC(=S)N(Cc1ccccc1)c1ccccn1 | inconclusive: 23.8 µM [inhibitor, partial curve] |  |
| CCC(C)c1ccc(OCC(=O)Nc2cccc(C(=O)Nc3ccc(C(=O)O)cc3)c2)cc1 (stereo not drawn) | inconclusive: 21.2 µM [inhibitor, partial curve] |  |
| CCOC(=O)CSc1nc(-c2ccc(OC)cc2)ns1 | active: 10.6 µM |  |
| Cc1cc(N)n(-c2ccc(Oc3ccccc3)c(S(=O)(=O)O)c2)n1 | inconclusive: 33.6 µM [inhibitor, single point] |  |
| CCSc1oc(-c2cccs2)nc1S(=O)(=O)c1ccccc1 | inconclusive: 29.9 µM [inhibitor, partial curve] |  |
| O=c1c2ccccc2[nH]c(=S)n1Cc1cccnc1 | active: 26.7 µM |  |
| CC(C)C(=O)c1cn(CC(=O)O)c2ccccc12 | inconclusive: 5.97 µM [inhibitor, partial curve] |  |
| COc1ccccc1Nc1nc(N)nc(CSc2nccn2C)n1 | inconclusive: 26.7 µM [inhibitor, single point] |  |
| O=C(CSc1nnc(-c2ccco2)o1)N1CCN(c2ccccc2)CC1 | active: 29.9 µM |  |
| CN(C(=O)c1ccc(NC(=O)Cc2ccc(NC(=O)C3CCN(C(=O)C4CCC4)CC3)cc2)cc1)C1CC1 |  | inactive: 3.92% |
| CCCNC(=O)c1cc(C2CCCCN2C(=O)c2ccccc2)on1 (stereo not drawn) |  | inactive: -5.89% |
| CCOC(=O)[C@H]1NN=C(C(=O)OC)[C@@H]1c1ccccc1 | active: 37.7 µM |  |
| CSc1nnc(C)c(/C=C/Nc2ccc(Cl)cc2)n1 | inconclusive: 37.7 µM [inhibitor, single point] |  |
| COc1ccc(NS(=O)(=O)c2ccc(O)c(NC(=O)c3cc4c(C)nn(-c5ccc(F)cc5)c4s3)c2)cc1 | active: 75.2 µM |  |
| c1cnc2nc(CSc3ncn[nH]3)cn2c1 |  | inactive: -3.5% |
| CCOc1ccc(CN2CCN(CC3=Cc4cccc(OC)c4OC3)CC2CCO)cc1 (stereo not drawn) |  | inactive: -2.98% |
| COCCN1Cc2cccc(C(=O)Nc3ccc(S(=O)(=O)N4CCCCC4)cc3)c2C1=O | inconclusive: 23.8 µM [inhibitor, single point] |  |
| CCS(=O)(=O)N1CCC(C(=O)NCCCN2CCN(c3ccccc3F)CC2)CC1 |  | inactive: -0.799% |

| Structure (SMILES) | Potency | max response, negative = inhibition |
| --- | --- | --- |
| Cc1noc(C)c1CSc1nc2ccccc2n1CCc1ccccc1 | inconclusive: 23.8 µM [inhibitor, partial curve] |  |
| Cc1nn(-c2ccccc2)c2c1C1(C(=O)N(C)c3ccccc31)C(C#N)=C(N)O2 (stereo not drawn) | inconclusive: 23.8 µM [inhibitor, partial curve] |  |
| COc1ccc(C(C#N)N2N=C(C)CC2(C)C)cc1OC (stereo not drawn) | inconclusive: 26.7 µM [inhibitor, single point] |  |
| Nc1cccc2c1C(=O)c1ccc(Cl)cc1C2=O | inconclusive: 26.7 µM [inhibitor, single point] |  |
| O=C(NC(NNc1ccc([N+](=O)[O-])cc1)(C(F)(F)F)C(F)(F)F)c1ccccc1Cl | inconclusive: 16.8 µM [inhibitor, partial curve] |  |
| COc1ccc(/C=C2\SC(=S)N(CCC(=O)Nc3ccccc3C(=O)O)C2=O)cc1 | inconclusive: 23.8 µM [inhibitor, single point] |  |
| CCCCn1c(=S)[nH]c2cc(S(=O)(=O)N3CCCCC3)ccc21 | inconclusive: 21.2 µM [inhibitor, partial curve] |  |
| Cc1cc2cc(C)c(NCCNC(=O)c3ccccc3Cl)nc2cc1C | inconclusive: 33.6 µM [inhibitor, partial curve] |  |
| C/C(O)=C(\C#N)c1nnc2n1CCCCC2 |  | inactive: -1.03% |
| CCOn1c(=O)c(C)[n+]([O-])c2ccccc21 |  | inactive: -1.93% |
| c1ccc(Nc2nc(CSc3ncn[nH]3)cs2)cc1 |  | inactive: -14.4% |
| Cc1ccc(-c2nnn(CC(=O)N(Cc3cccs3)C(C(=O)NC(C)(C)C)c3ccc(C)o3)n2)o1 (stereo not drawn) |  | inactive: -4.52% |
| O=c1c2ccccc2c(=O)n(-c2ccccc2)n1CCCCBr |  | inactive: -4.69% |
| CN(c1cccc(NC(=O)COc2ccc(Cl)cc2Cl)c1)S(C)(=O)=O |  | inactive: -3.77% |
| CN(C1CCCCC1)S(=O)(=O)c1ccc(C(=O)Nc2sc3c(c2C(N)=O)CC(C)(C)NC3(C)C)cc1 | active: 33.6 µM |  |
| COc1cccc(/C=C/C(=C2\C(=O)N(c3ccccc3)N=C2C)c2ccc(Br)cc2)c1OC | inconclusive: 16.8 µM [inhibitor, partial curve] |  |
| Cc1cccc(NS(=O)(=O)c2cccc(C(=O)N3CCCCCC3)c2)c1 |  | inactive: -11.7% |
| CCOC(=O)C1=C(N)N(c2cc(S(=O)(=O)N3CCOCC3)ccc2Cl)C(=O)C1 |  | inconclusive: -30.8% [inhibitor] |
| Cc1ccc(N2C(=O)C3CCCN3C2=S)cc1Cl (stereo not drawn) | inconclusive: 9.47 µM [inhibitor, partial curve] |  |
| O=S(=O)(Nc1ccc(Br)cc1)c1cccc2nonc12 |  | inactive: -7.13% |
| COC(=O)CCn1c(C)cc(C(=O)COc2ccccc2C(N)=O)c1C | inconclusive: 26.7 µM [inhibitor, single point] |  |
| CC1=CC(=C(C#N)c2nc3ccccc3s2)C=C(C)N1Cc1ccco1 | inconclusive: 23.8 µM [inhibitor, single point] |  |
